Assay results as given in PubChem BioAssay AID248 (DTP/NCI, 2004).
The list shows only some results of the screen, not a fair sample: it is rich in T/C values a quarter to a half above the control, in often repeated tests (any T/C) and in doses without a T/C. Further doses and runs are listed elsewhere. T/C: endpoint of the treated group in % of that of the vehicle group. Some doses have a count of surviving animals in place of a T/C: the source files T/C as zero there, which appears to mark a toxic dose or a test without result, not a measured value. Some survivor counts are full or nearly so, which does not show that the dose was tolerated: survival well below the control is almost never listed, so the zero probably covers shortened survival too. Counts of survivors are from the toxicity check (mostly the fifth day) where no day follows; animals may have died later. Schedule codes are those of the source, read here as Q, the interval in days (D) or hours (H), X, the number of doses. Some entries hold several experiments; their values stand side by side, smallest first. Some schedule codes hold Z or #, which are not explained here. Where survival is the endpoint, this PubChem deposit counts one and a half times the control or more as active, and values a quarter to a half above the control carry no call in these data; other NCI protocols may use other cut-offs.

Tested on: L1210 leukemia ip in BDF1 mice, survival T/C
Test: NCI In Vivo Anticancer Drug Screen. Data for tumor model L1210 Leukemia (intraperitoneal) in B6D2F1 (BDF1) mice
Settings: higher T/C = longer survival
[1] = T/C endpoint: mean survival time, dose: 400.0 mg/kg/injection, schedule: Q04DX003 (ip), vehicle: saline with Tween-80
[2] = T/C endpoint: mean survival time, dose: 200.0 mg/kg/injection, schedule: Q01DX009 (ip), vehicle: Klucel (hydroxypropylcellulose) (HPC)
[3] = T/C endpoint: mean survival time, dose: 400.0 mg/kg/injection, schedule: Q01DX009 (ip), vehicle: Klucel (hydroxypropylcellulose) (HPC)
[4] = T/C endpoint: mean survival time, dose: 200.0 mg/kg/injection, schedule: Q01DX001 (ip), vehicle: saline
[5] = T/C endpoint: mean survival time, dose: 400.0 mg/kg/injection, schedule: Q01DX001 (ip), vehicle: saline
[6] = T/C endpoint: mean survival time, dose: 200.0 mg/kg/injection, schedule: Q04DX003 (ip), vehicle: Klucel (hydroxypropylcellulose) (HPC)
[7] = T/C endpoint: mean survival time, dose: 400.0 mg/kg/injection, schedule: Q04DX003 (ip), vehicle: Klucel (hydroxypropylcellulose) (HPC)
[8] = T/C endpoint: mean survival time, dose: 100.0 mg/kg/injection, schedule: Q01DX009 (ip), vehicle: saline with Tween-80
[9] = T/C endpoint: mean survival time, dose: 100.0 mg/kg/injection, schedule: Q04DX002 (ip), vehicle: saline with Tween-80
[10] = T/C endpoint: mean survival time, dose: 200.0 mg/kg/injection, schedule: Q04DX002 (ip), vehicle: saline with Tween-80
[11] = T/C endpoint: mean survival time, dose: 400.0 mg/kg/injection, schedule: Q04DX002 (ip), vehicle: saline with Tween-80
[12] = T/C endpoint: mean survival time, dose: 200.0 mg/kg/injection, schedule: Q01DX009 (ip), vehicle: saline with Tween-80
[13] = T/C endpoint: mean survival time, dose: 400.0 mg/kg/injection, schedule: Q04DX002 (ip), vehicle: saline

## CC1CN(Cc2ccc([N+](=O)[O-])cc2)CC(C)N1N=O (centres undefined)
T/C endpoint: mean survival time, dose: 25.0 mg/kg/injection, schedule: Q01DX009 (ip), vehicle: water
  survivor count: 1 of 6
T/C endpoint: mean survival time, dose: 50.0 mg/kg/injection, schedule: Q01DX009 (ip), vehicle: water
  survivor count: 5 of 6
T/C endpoint: mean survival time, dose: 100.0 mg/kg/injection, schedule: Q01DX009 (ip), vehicle: water
  survivor count: 6 of 6
T/C endpoint: mean survival time, dose: 200.0 mg/kg/injection, schedule: Q01DX009 (ip), vehicle: water
  survivor count: 6 of 6
T/C endpoint: mean survival time, dose: 400.0 mg/kg/injection, schedule: Q01DX009 (ip), vehicle: water
  survivor count: 5 of 6

## O=[N+]([O-])c1cccc(C(O)C=C(C(F)(F)F)C(F)(F)F)c1 (centres undefined)
T/C endpoint: mean survival time, dose: 200.0 mg/kg/injection, schedule: Q04DX003 (ip), vehicle: saline with Tween-80
  survivor count: 6 of 6
[1]
  survivor count: 6 of 6

## COC(=O)C1=C(C(=O)OC)[N+](C)(C)N=C1[O-]
T/C endpoint: mean survival time, dose: 200.0 mg/kg/injection, schedule: Q04DX003 (ip), vehicle: saline
  survivor count: 1 of 6
T/C endpoint: mean survival time, dose: 400.0 mg/kg/injection, schedule: Q04DX003 (ip), vehicle: saline
  survivor count: 0 of 6

## CNC(=S)N/N=C(/C)CCC/C(C)=N/NC(=S)NC
T/C endpoint: mean survival time, dose: 50.0 mg/kg/injection, schedule: Q03HX024 (ip), vehicle: Klucel (hydroxypropylcellulose) (HPC)
  survivor count: 0 of 8
T/C endpoint: mean survival time, dose: 100.0 mg/kg/injection, schedule: Q01DX009 (ip), vehicle: Klucel (hydroxypropylcellulose) (HPC)
  survivor count: 5 of 8
T/C endpoint: mean survival time, dose: 100.0 mg/kg/injection, schedule: Q03HX024 (ip), vehicle: Klucel (hydroxypropylcellulose) (HPC)
  survivor count: 0 of 8
[2]
  survivor count: 0 of 8

## S=C(NCc1ccc(Cl)c(Cl)c1)Nc1ccccc1
[2]
  survivor count: 6 of 6
[3]
  survivor count: 6 of 6

## CCOc1ccccc1/C=N/N=C(N)N
T/C endpoint: mean survival time, dose: 250.0 mg/kg/injection, schedule: Q01DX Z (ip), vehicle: carboxymethylcellulose (CMC)
  survivor count: 0 of 6
T/C endpoint: mean survival time, dose: 500.0 mg/kg/injection, schedule: Q01DX Z (ip), vehicle: carboxymethylcellulose (CMC)
  survivor count: 0 of 6

## COc1cc(N2C(=O)C=CC2=O)ccc1N1C(=O)C=CC1=O
T/C endpoint: mean survival time, dose: 20.0 mg/kg/injection, schedule: Q01DX001 (ip), vehicle: saline
  survivor count: 1 of 6
T/C endpoint: mean survival time, dose: 40.0 mg/kg/injection, schedule: Q01DX001 (ip), vehicle: saline
  survivor count: 0 of 6
T/C endpoint: mean survival time, dose: 80.0 mg/kg/injection, schedule: Q01DX001 (ip), vehicle: saline
  survivor count: 0 of 6
T/C endpoint: mean survival time, dose: 100.0 mg/kg/injection, schedule: Q01DX001 (ip), vehicle: saline
  survivor count: 0 of 6
[4]
  survivor count: 0 of 6
[5]
  survivor count: 0 of 6

## Cn1ccc2c([N+](=O)[O-])cccc2c1=O
T/C endpoint: mean survival time, dose: 100.0 mg/kg/injection, schedule: Q04DX003 (ip), vehicle: Klucel (hydroxypropylcellulose) (HPC)
  survivor count: 0 of 6 and 1 of 6
[6]
  survivor count: 0 of 6
[7]
  survivor count: 0 of 6

## CCOP(=O)(CSc1ccccc1)OCC
[8]
  survivor count: 1 of 3
[9]
  survivor count: 1 of 3
[10]
  survivor count: 0 of 3
[11]
  survivor count: 0 of 3

## CN1CCc2[nH]c3ccccc3c2C1
T/C endpoint: mean survival time, dose: 300.0 mg/kg/injection, schedule: Q04DX003 (ip), vehicle: Klucel (hydroxypropylcellulose) (HPC)
  survivor count: 0 of 6

## c1cc2c3c(c1)/C(=N\N=C1/CCN4CCCc5cccc1c54)CCN3CCC2
[1]
  survivor count: 6 of 6

## CN(C)c1ccc(/C=N\NC(=S)Nc2ccc3cn[nH]c3c2)cc1
T/C endpoint: mean survival time, dose: 400.0 mg/kg/injection, schedule: Q01DX001 (ip), vehicle: carboxymethylcellulose (CMC)
  survivor count: 0 of 4

## Cc1ccc([NH-])cc1.Cc1ccc([NH-])cc1.[Cl][Pt+2][Cl]
T/C endpoint: mean survival time, dose: 25.0 mg/kg/injection, schedule: Q01DX009 (ip), vehicle: saline with Tween-80
  survivor count: 3 of 6
[8]
  survivor count: 1 of 6
[12]
  survivor count: 0 of 6
T/C endpoint: mean survival time, dose: 400.0 mg/kg/injection, schedule: Q01DX009 (ip), vehicle: saline with Tween-80
  survivor count: 0 of 6

## CCCCCCCCCCOC(=O)C[n+]1cccc(C(=O)Nc2ccc(Cl)cc2)c1
T/C endpoint: mean survival time, dose: 100.0 mg/kg/injection, schedule: Q04DX003 (ip), vehicle: other
  survivor count: 1 of 6
T/C endpoint: mean survival time, dose: 200.0 mg/kg/injection, schedule: Q04DX003 (ip), vehicle: other
  survivor count: 0 of 6
T/C endpoint: mean survival time, dose: 400.0 mg/kg/injection, schedule: Q04DX003 (ip), vehicle: other
  survivor count: 0 of 6

## NOC(=O)c1ccccc1
[13]
  survivor count: 0 of 3

## CCCCN=C(NCCCC)c1ccc(NC(=O)c2ccc(C(=O)Nc3ccc(C(=NCCCC)NCCCC)cc3)cc2)cc1
T/C endpoint: mean survival time, dose: 16.0 mg/kg/injection, schedule: Q01DX015 (ip), vehicle: methylcellulose (MC)
  survivor count: 0 of 6
T/C endpoint: mean survival time, dose: 31.0 mg/kg/injection, schedule: Q01DX015 (ip), vehicle: methylcellulose (MC)
  survivor count: 0 of 6
T/C endpoint: mean survival time, dose: 62.0 mg/kg/injection, schedule: Q01DX015 (ip), vehicle: methylcellulose (MC)
  survivor count: 0 of 6
T/C endpoint: mean survival time, dose: 125.0 mg/kg/injection, schedule: Q01DX015 (ip), vehicle: methylcellulose (MC)
  survivor count: 0 of 6
T/C endpoint: mean survival time, dose: 250.0 mg/kg/injection, schedule: Q01DX015 (ip), vehicle: methylcellulose (MC)
  survivor count: 0 of 6

## Nc1cc2ccccc2c2c1ccc1ccccc12
[7]
  survivor count: 3 of 6

## N#CC(O)c1ccc([N+](=O)[O-])cc1 (centres undefined)
T/C endpoint: mean survival time, dose: 50.0 mg/kg/injection, schedule: Q04DX002 (ip), vehicle: saline with Tween-80
  survivor count: 0 of 3
[9]
  survivor count: 0 of 3
[10]
  survivor count: 0 of 3
[11]
  survivor count: 0 of 3

## COC(=O)CSC#N
T/C endpoint: mean survival time, dose: 100.0 mg/kg/injection, schedule: Q04DX002 (ip), vehicle: saline
  survivor count: 0 of 3
T/C endpoint: mean survival time, dose: 200.0 mg/kg/injection, schedule: Q04DX002 (ip), vehicle: saline
  survivor count: 0 of 3
[13]
  survivor count: 0 of 3

## Nc1ccc(CCc2ccccc2)cc1
[8]
  survivor count: 4 of 6
[12]
  survivor count: 0 of 6

## C=C1C(=O)OC2/C=C(/CO)C3OC3C3OC3(C)CC(OC(=O)/C(C)=C\COC(C)=O)C12 (centres undefined)
[6]
  survivor count: 1 of 6
[7]
  survivor count: 2 of 6

## Cc1ccc2c(ccc3nnc(C)n32)c1
[4]
  survivor count: 1 of 4
[5]
  survivor count: 1 of 4

## C/C(=C\Cl)COC1CCCCO1 (centres undefined)
T/C endpoint: mean survival time, dose: 400.0 mg/kg/injection, schedule: Q01DX009 (ip), vehicle: acetone
  survivor count: 3 of 6

## O=C(O)C1CC(c2ccccc2)=C(c2ccccc2)CC1C(=O)O (centres undefined)
T/C endpoint: mean survival time, dose: 200.0 mg/kg/injection, schedule: Q04DX002 (ip), vehicle: Klucel (hydroxypropylcellulose) (HPC)
  T/C: 125 % of control
T/C endpoint: mean survival time, dose: 400.0 mg/kg/injection, schedule: Q04DX002 (ip), vehicle: Klucel (hydroxypropylcellulose) (HPC)
  survivor count: 0 of 3 and 1 of 3

## Brc1cc(Br)c2[nH]c3c(Br)cc(Br)cc3c2c1
[3]
  survivor count: 1 of 6

## O=C(O)c1cccc(N=Nc2ccc(N(CCCl)CCCl)cc2)c1
T/C endpoint: median survival time, dose: 100.0 mg/kg/injection, schedule: Q01DX009 (ip), vehicle: Klucel (hydroxypropylcellulose) (HPC)
  survivor count: 5 of 6
T/C endpoint: median survival time, dose: 200.0 mg/kg/injection, schedule: Q01DX009 (ip), vehicle: Klucel (hydroxypropylcellulose) (HPC)
  survivor count: 2 of 6
T/C endpoint: median survival time, dose: 400.0 mg/kg/injection, schedule: Q01DX009 (ip), vehicle: Klucel (hydroxypropylcellulose) (HPC)
  survivor count: 1 of 6

## CCCCCCCCCCCCCCCCCCNC(=O)Nc1ccccc1[N+](=O)[O-]
T/C endpoint: mean survival time, dose: 200.0 mg/kg/injection, schedule: Q01DX009 (ip), vehicle: DMSO
  survivor count: 4 of 6
T/C endpoint: mean survival time, dose: 400.0 mg/kg/injection, schedule: Q04DX003 (ip), vehicle: DMSO
  survivor count: 5 of 6
